This assay deals with T1, RXRα, endogenous mouse (mouse (endogenous in primary mouse hepatocytes)) (UniProt P28700).
T1 sequence: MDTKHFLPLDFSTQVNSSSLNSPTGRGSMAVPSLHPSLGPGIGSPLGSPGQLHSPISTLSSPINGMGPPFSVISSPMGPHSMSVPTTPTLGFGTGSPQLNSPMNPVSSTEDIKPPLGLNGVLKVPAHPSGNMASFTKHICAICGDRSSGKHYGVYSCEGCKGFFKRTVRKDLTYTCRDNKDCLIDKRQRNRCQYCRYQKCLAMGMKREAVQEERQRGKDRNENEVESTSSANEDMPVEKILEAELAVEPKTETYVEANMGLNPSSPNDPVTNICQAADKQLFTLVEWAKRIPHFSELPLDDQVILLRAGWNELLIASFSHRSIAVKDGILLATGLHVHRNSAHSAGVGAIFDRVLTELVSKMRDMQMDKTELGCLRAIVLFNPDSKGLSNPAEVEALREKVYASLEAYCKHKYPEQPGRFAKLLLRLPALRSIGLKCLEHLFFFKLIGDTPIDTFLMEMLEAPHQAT
Kind of assay: co-IP; extracts of PMH from FXR-KO mice infected with Ad-flag-FXR WT or Y67F-FXR (or transfected with siRNA for Src), treated with FGF19 for 30 min; FXR in anti-RXRα immunoprecipitates detected by IB.

The values below come from paper PMC6030054.

No constants are given. Whether binding was seen depends on the method and setting. Binding seen in cells or lysates may run through a third protein. Binding calls can cover weak binding; strength is not graded here.

As to “flag-FXR-WT (3xFlag-human FXR), adenovirally expressed in primary mouse hepatocytes”, the binding result is on record as “binds”.
